Data source: PubChem BioAssay AID1259287 (Sanger Institute, 2017)

Aim: 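Retest single siRNAs that may add killing with three colorectal cancer drugs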 (follow-up of hits)
Cells: human HCT15 colorectal cancer cells
Reagents: single siRNA against human genes
Treatment: BYL719 1 µM, cetuximab 5 µg/ml or trametinib 10 nM, or DMSO vehicle
Read-out: 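Survival scaled to control siRNA wells, then a synergy score per drug giving combined effect beyond the expected one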
Direction: synergy score with BYL719 and synergy score with cetuximab and synergy score with trametinib: higher = stronger combined killing than expected; viability with DMSO vehicle only: higher = more cells survive the knock-down
Active means: 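Called active when the synergy score is above 0.10 for one or more of the three drugs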
Calls: active = synergy with at least one drug; inactive = no synergy with any drug
In all, the deposit lists 160 reagents; below is a part drawn at random. In the full data, 19 (12%) are marked active. 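Viability seems capped at 1; calls apply to HCT15 cells only, not to validation across other lines.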 A number with no mark means an inactive call. The numbers tell different reagents against one gene apart. Not given: the amount of reagent, the time to read-out.

| gene | siRNA no. | synergy score with BYL719 | synergy score with cetuximab | synergy score with trametinib | viability with DMSO vehicle only (fraction of control) |
| --- | --- | --- | --- | --- | --- |
| HSPB8 | 1 | -0.0651 | -0.156 | -0.116 | 0.786 |
| HSPB8 | 2 | -0.167 | -0.0389 | 0.0243 | 0.95 |
| HSPB8 | 3 | -0.163 | -0.134 | -0.0477 | 0.86 |
| HSPB8 | 4 | 0.0842 | -0.0634 | 0.0781 | 0.869 |
| STK36 | 1 | -0.151 | -0.0751 | -0.0958 | 0.819 |
| STK36 | 2 | -0.0955 | -0.114 | -0.0197 | 0.855 |
| STK36 | 3 | -0.171 | -0.0428 | 0.0523 | 0.87 |
| STK36 | 4 | -0.165 | -0.192 | -0.0307 | 0.785 |
| GUCY2D | 1 | -0.0159 | -0.0734 | -0.0766 | 0.962 |
| GUCY2D | 2 | -0.0833 | -0.202 | 0.0612 | 0.835 |
| GUCY2D | 3 | -0.191 | -0.184 | -0.0845 | 0.432 |
| GUCY2D | 4 | -0.134 | -0.0444 | -0.0773 | 1 |
| EPHA6 | 1 | -0.105 | 0.0739 | -0.0108 | 0.697 |
| EPHA6 | 2 | 0.116 (active) | -0.146 | 0.0241 | 0.752 |
| EPHA6 | 3 | -0.018 | -0.026 | 0.013 | 0.642 |
| EPHA6 | 4 | -0.0155 | -0.0642 | -0.0739 | 0.797 |
| BMPR2 | 1 | -0.0865 | -0.0924 | -0.171 | 0.95 |
| BMPR2 | 2 | -0.117 | -0.0776 | -0.122 | 0.81 |
| BMPR2 | 3 | -0.244 | -0.133 | -0.139 | 0.875 |
| BMPR2 | 4 | -0.166 | -0.0479 | -0.138 | 0.988 |
| NR2F2 | 1 | -0.0297 | 0.0367 | -0.0445 | 0.84 |
| NR2F2 | 2 | -0.0625 | -0.141 | -0.11 | 0.862 |
| NR2F2 | 3 | -0.0903 | -0.0414 | -0.0413 | 1 |
| NR2F2 | 4 | -0.0996 | -0.211 | 0.0582 | 0.822 |
| MAPK4 | 1 | -0.0663 | -0.105 | -0.179 | 0.758 |
| MAPK4 | 2 | -0.165 | -0.296 | -0.127 | 0.705 |
| MAPK4 | 3 | 0.0317 | 0 | -0.0126 | 0.873 |
| MAPK4 | 4 | -0.0395 | 0.0192 | -0.137 | 0.57 |
| HUNK | 1 | 0.162 (active) | -0.114 | -0.0362 | 0.85 |
| HUNK | 2 | 0.00387 (active) | -0.13 | 0.115 | 0.682 |
| HUNK | 3 | 0.068 (active) | 0.105 | 0.248 | 0.997 |
| HUNK | 4 | -0.00908 | -0.0817 | 0.0248 | 0.838 |
| CDKN2D | 1 | -0.104 | -0.0182 | -0.0565 | 0.77 |
| CDKN2D | 2 | -0.149 (active) | -0.0514 | 0.136 | 0.817 |
| CDKN2D | 3 | -0.0266 | -0.0444 | -0.101 | 1 |
| CDKN2D | 4 | 0.00481 | 0.0231 | -0.0296 | 0.517 |
| MAP3K8 | 1 | -0.132 | 0.0243 | -0.139 | 0.986 |
| MAP3K8 | 2 | -0.0169 | -0.0581 | 0.00358 | 0.575 |
| MAP3K8 | 3 | -0.081 | -0.132 | -0.0702 | 0.874 |
| MAP3K8 | 4 | -0.0606 | -0.0457 | -0.0797 | 0.999 |
